Experiment [1] addresses non-metastatic 2 (NME2) (human (endogenous in HT1080)) (UniProt P22392). Put plainly: co-IP; 500 ug HT1080 nuclear extract, 4 ug anti-NME2 antibody (Kamiya), 4 h at 4 °C, Catch and Release kit; blots for REST, LSD1, HDAC1, HDAC2; isotype control IgG.
Experiment [2] concerns the target T1, RE1-silencing transcription factor (REST) (human (endogenous in HT1080)) (UniProt Q13127).
T1 sequence: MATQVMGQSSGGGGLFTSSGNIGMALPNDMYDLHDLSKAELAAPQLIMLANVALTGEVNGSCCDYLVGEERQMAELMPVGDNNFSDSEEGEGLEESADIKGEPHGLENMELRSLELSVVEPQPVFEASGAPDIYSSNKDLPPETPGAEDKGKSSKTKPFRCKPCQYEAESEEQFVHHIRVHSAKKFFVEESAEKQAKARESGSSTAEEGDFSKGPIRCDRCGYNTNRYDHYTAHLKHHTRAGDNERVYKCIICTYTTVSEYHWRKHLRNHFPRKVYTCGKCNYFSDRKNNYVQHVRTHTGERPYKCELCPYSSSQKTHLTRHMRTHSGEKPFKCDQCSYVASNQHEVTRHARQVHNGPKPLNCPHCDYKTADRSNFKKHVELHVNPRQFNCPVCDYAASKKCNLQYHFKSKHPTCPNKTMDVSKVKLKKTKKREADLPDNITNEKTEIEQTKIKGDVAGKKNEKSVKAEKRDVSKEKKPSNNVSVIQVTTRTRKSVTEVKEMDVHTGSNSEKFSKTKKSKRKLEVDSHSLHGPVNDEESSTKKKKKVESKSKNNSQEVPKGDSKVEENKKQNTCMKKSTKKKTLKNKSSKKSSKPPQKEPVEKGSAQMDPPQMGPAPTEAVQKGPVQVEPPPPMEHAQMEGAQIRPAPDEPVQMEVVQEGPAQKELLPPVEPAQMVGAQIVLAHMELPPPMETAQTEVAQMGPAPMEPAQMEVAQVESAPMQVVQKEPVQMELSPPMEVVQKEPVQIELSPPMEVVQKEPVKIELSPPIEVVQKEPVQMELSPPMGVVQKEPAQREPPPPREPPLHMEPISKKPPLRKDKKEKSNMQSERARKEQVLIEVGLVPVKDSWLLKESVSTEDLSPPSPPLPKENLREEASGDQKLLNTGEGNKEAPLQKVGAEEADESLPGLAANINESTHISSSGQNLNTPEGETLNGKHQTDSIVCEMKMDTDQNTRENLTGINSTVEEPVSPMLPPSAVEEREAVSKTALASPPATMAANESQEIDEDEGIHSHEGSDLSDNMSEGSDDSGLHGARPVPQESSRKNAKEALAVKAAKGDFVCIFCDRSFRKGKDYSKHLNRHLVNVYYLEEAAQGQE
In words: co-IP; reverse co-IP with anti-REST or anti-LSD1 antibody, NME2 detected.

Sequences of proteins named here, by UniProt entry; tags and fusion partners are left off. A change or cut given only in a name is not applied to a line headed by its entry.
UniProt P22392: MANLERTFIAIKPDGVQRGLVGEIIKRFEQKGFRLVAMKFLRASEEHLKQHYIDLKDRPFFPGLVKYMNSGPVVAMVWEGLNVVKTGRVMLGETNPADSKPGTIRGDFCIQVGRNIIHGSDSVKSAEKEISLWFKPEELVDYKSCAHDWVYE
UniProt Q13547: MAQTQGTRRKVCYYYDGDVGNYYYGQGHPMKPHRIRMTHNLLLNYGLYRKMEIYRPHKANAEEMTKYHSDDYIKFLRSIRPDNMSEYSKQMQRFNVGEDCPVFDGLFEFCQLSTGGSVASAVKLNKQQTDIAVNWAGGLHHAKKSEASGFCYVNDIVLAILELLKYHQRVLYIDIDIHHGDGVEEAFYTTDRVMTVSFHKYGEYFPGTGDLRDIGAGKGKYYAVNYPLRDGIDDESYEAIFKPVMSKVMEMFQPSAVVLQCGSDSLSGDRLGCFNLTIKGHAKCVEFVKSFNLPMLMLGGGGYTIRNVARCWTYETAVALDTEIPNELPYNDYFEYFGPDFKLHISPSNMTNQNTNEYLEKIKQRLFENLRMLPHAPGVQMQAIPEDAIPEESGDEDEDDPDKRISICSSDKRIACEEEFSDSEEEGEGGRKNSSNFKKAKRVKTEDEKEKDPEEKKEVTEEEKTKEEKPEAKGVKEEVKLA
UniProt Q92769: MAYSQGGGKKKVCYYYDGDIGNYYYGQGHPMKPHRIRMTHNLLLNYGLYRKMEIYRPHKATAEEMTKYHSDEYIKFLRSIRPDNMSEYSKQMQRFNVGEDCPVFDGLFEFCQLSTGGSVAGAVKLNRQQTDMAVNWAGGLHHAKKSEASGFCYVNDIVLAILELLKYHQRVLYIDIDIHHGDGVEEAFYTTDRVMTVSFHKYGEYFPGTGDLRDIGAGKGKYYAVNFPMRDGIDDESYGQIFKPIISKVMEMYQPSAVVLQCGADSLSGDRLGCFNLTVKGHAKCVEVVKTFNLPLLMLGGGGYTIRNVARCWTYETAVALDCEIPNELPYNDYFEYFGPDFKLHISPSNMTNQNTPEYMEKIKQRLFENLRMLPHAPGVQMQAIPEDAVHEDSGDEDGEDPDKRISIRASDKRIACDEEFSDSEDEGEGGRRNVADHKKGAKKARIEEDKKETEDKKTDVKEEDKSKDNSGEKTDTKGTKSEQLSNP

For experiment [3], the target named is non-metastatic 2 (NME2) (human (endogenous in HT1080)) (UniProt P22392). In words: co-IP; 500 ug HT1080 nuclear extract, 4 ug anti-NME2 antibody (Kamiya), 4 h at 4 °C, Catch and Release kit; blots for REST, LSD1, HDAC1, HDAC2; isotype control IgG. This is another data set of the same source.
For experiment [4], the target named is HA-tagged NME2 (HA-NME2) (human) (UniProt P22392). In words: co-IP; nuclear lysate of HT1080 cells expressing HA-NME2 or HA-NME2(N69H), immunoprecipitated with anti-HA antibody, probed with anti-REST antibody.
Experiment [5] concerns the target HA-NME2(N69H) (human) (UniProt P22392). The description is as above.

Where two headings read alike, the source gives them in different places. Results are given in words; binding and its absence hold for the method and conditions named. In cells and extracts the contact can be indirect. Some results given as binding are weak or reduced against the parent protein; the word gives no strength.

Take HDAC1 (from UniProt Q13547 1-482): the binding entry in experiment [1] was “binds”. As for HDAC2 (from UniProt Q92769 1-488), in experiment [1], the binding entry is “binds”. As for “non-metastatic 2 (NME2) (from UniProt P22392 1-152)”, the binding entry in experiment [2] is given as “binds”.

B1: RE1-silencing transcription factor (REST) (protein, UniProt Q13127 1-1097)
chain: T1 sequence
With B1, the binding entry in experiment [3], in experiment [4] and in experiment [5] was “binds” in each case.

(Values after PMC5602382.)
